HELM strings list residues between dots; [ac] is acetyl, [am] amide, other brackets name non-standard units.
Assay: peptide made by a vendor
Settings: whole synthesis

Row | Substance | purity (crude or final not stated) [%]
1 | PEPTIDE1{G.W.G.S.F.F.K.K.A.A.H.V.G.K.H.V.G.K.A.A.L.T.H.Y.L}$$$$V2.0 | 96.68
2 | PEPTIDE1{G.W.G.S.F.F.K.K.A.A.H.V.G.K}$$$$V2.0 | 95.59
3 | PEPTIDE1{G.W.K.K.F.F.K.K.W.K.H.V.W.K}$$$$V2.0 | 95.52
4 | PEPTIDE1{G.W.K.S.F.F.K.K.F.K.H.V.W.K}$$$$V2.0 | 95.58
5 | PEPTIDE1{G.W.K.S.F.F.K.K.W.K.H.V.W.K}$$$$V2.0 | 95.35

— paper PMC9610943 (Pharmaceutics, 2022)
